Experimental data taken from patent publication US20260306524A1, “Guanidinylated Amphiphilic Tobramycin Derivates and B-Lactam/B-Lactamase Inhibitor Combinations for Treatment of Pseudomonas Aeruginosa Infections” (University of Manitoba, priority 2023, published 2026).
At least one structure is not confirmed: it was looked up by name or label, or the drawing left a doubt.

Columns and labels:
Format in all cases: cell-based, Pseudomonas aeruginosa
P. aeruginosa PAO1 cells = assay: NPN uptake assay (outer membrane permeabilization); settings: for change in NPN fluorescence: 2 μM; for change in NPN fluorescence intensity: 6 μM, at 150 s upon addition of NPN; for NPN fluorescence difference compared to PMBN: PMBN control
[1] = system: β-lactamase harboring P. aeruginosa isolates; assay: Checkerboard dual and triple combinations, β-lactamase harboring isolates; settings: for dual combination with aztreonam compared to aztreonam plus avibactam / dual combination with ceftazidime compared to ceftazidime plus avibactam / potentiation of ceftazidime, 5 versus 8: five β-lactamase harboring strains
Excerpt: (§1) Since the main resistance mechanism against BL antibiotics is the hydrolysis by β-lactamase enzymes (46), it is imperative that the synergy evaluation is extended to P. aeruginosa strains containing these enzymes. Based on the results of the checkerboard assays against the MDR strains, the synergy of 5 and 8 with ceftazidime and aztreonam was further assessed against β-lactamase harboring P. aeruginosa isolates. These strains are characterized by their increased susceptibility to ceftazidime with the addition of avibactam. In addition, a triple combination therapy consisting of the tobramycin derivative, either BL antibiotic and avibactam was also investigated.
(§2) The checkerboard assay was conducted as previously described (61). The bacterial solution was prepared as described in the broth microdilution method. The antibiotic of interest was serially diluted two-fold along the x-axis, and the adjuvant is serially diluted two-fold along the y-axis in a 96-well plate. Equal volumes of bacterial solution were added to the designated wells. The first row and columns are used to verify the MIC of the antibiotic and adjuvant, respectively. The well containing only broth served as negative control, while the well containing the broth and bacterial solution served as positive control. The plate was then incubated at 37° C. for 18 hours. After incubation, Molecular Devices (United States) Emax Plus microplate reader was used to measure the OD at a wavelength of 590 nm. Synergy was determined by at least a 4-fold reduction of the MIC of both agents.

[2] = system: MDR clinical isolates of P. aeruginosa; assay: Checkerboard synergy, MDR clinical isolates; settings: for synergy with ceftazidime (strains): FIG. 3; for synergy with aztreonam (strains): FIG. 4
P. aeruginosa PAO1 = assay: Checkerboard synergy with β-lactam antibiotics, PAO1
Protocol: After establishing the MIC of the tobramycin derivatives, the ability of these adjuvants to synergize with BL antibiotics was investigated against P. aeruginosa PAO1. The checkerboard assays were conducted as previously described and in accordance with the CLSI guidelines (37). Synergy was defined by at least a 4-fold reduction in the MICs of both adjuvant and antibiotic. The panel of antibiotics are comprised of commonly used antipseudomonal agents and represent the different BL subclasses—cephalosporin (ceftazidime), monobactam (aztreonam), penicillin (piperacillin) and carbapenems (imipenem and meropenem) (12).
as §2, with “The plate was then incubated at 37° C. for 18 hours.” left out, “Synergy was determined by at least a 4-fold reduction of the MIC of both agents.” left out

[3] = system: β-lactamase harboring P. aeruginosa isolates; assay: MIC against β-lactamase harboring isolates; settings: five β-lactamase harboring strains, alone
Excerpt: as §1
The broth microdilution assay was performed in accordance with standard protocols as previously described (61). An inoculum of the culture was diluted in 0.85% saline solution to attain 0.5 McFarland turbidity. The inoculum was further diluted in Mueller-Hinton broth (MHB) for inoculation to a final concentration of 5×10^5 colony forming units/mL (CFU/mL). The agents were serially diluted two-fold in CA-MHB in a 96-well plate. […] After incubation, Molecular Devices (United States) Emax Plus microplate reader was used to measure the optical density (OD) at a wavelength of 590 nm to confirm the turbidity. The minimum inhibitory concentration (MIC) was determined as the lowest concentration that inhibited visible bacterial growth.

PA 86052 = assay: Time-kill kinetics assay, PA 86052; settings: 8 μg/mL of 8 with 8 μg/mL ceftazidime
Protocol: (§3) To elucidate the mechanistic killing of the triple combination studies, the time-kill kinetics assay was performed as previously described (32). […] 8 μg/mL of ceftazidime and 2 μg/mL avibactam were used to reflect the clinically used 4:1 ratio.
(§4) Time-kill curve analyses were performed as previously described (32). An inoculum of the culture was then diluted in 0.85% saline solution to attain 0.5 McFarland turbidity. The inoculum was further diluted in lysogeny broth (LB) containing different antibiotic and adjuvant concentrations. The culture tubes were incubated at 37° C., shaking at 250 rpm. At specific time intervals, an aliquot was taken from each tube, serially diluted in sterile phosphate-buffered saline (PBS) and plated on LB agar plates. The plates were incubated at 37° C. overnight and the bacterial colonies were counted the subsequent day. The bactericidal or bacteriostatic activity was determined based on the decrease in CFU over the designated time period. Bactericidal activity corresponded to ≥3 log reduction in CFU/mL, while bacteriostatic activity corresponded to <3 log reduction in CFU/mL.

PA 107092 = assay: Time-kill kinetics assay, PA 107092; settings: 8 μg/mL of 8 with ceftazidime
Protocol: as §3, §4

Structure (SMILES)	change in NPN fluorescence (P. aeruginosa PAO1 cells)	change in NPN fluorescence intensity (P. aeruginosa PAO1 cells)	NPN fluorescence difference compared to PMBN (P. aeruginosa PAO1 cells)	dual combination with aztreonam compared to aztreonam plus avibactam [1]	dual combination with ceftazidime compared to ceftazidime plus avibactam [1]	potentiation of ceftazidime, 5 versus 8 [1]	synergy with / potentiation of piperacillin (strains) [2]	synergy with ceftazidime (strains) [2]	synergy with aztreonam (strains) [2]	BL potentiation compared to the parent tobramycin (P. aeruginosa PAO1)	MIC [3]	antibacterial effect, dual combination with ceftazidime (PA 86052)	fold-potentiation of aztreonam, 8 versus 5 ([1]; in most cases, FIG. 6)	bacterial load over time, dual combination with ceftazidime (PA 107092)
CCCCCCCCOC1C(OC2OC(CNC(=N)N)C(O)CC2NC(=N)N)C(NC(=N)N)CC(NC(=N)N)C1OC1OC(CO)C(O)C(NC(=N)N)C1O (stereo not shown) [Compound 5, 5-O-(Octyl)-guanidinotobramycin]	minimal change in fluorescence	change in fluorescence intensity	resembled the fluorescence difference exhibited by PMBN	either more effective or comparable to the dual combination with avibactam	comparable to the dual combination with avibactam	comparable potentiation of ceftazidime	against PA262	retained synergy with three strains	only maintained synergy with aztreonam against three strains	superior BL potentiation	64 to >128	–	–	–
N=C(N)NC[C@H]1O[C@H](O[C@H]2[C@H](OCc3ccc(-c4ccccc4)cc3)[C@@H](O[C@H]3O[C@H](CO)[C@@H](O)[C@H](NC(=N)N)[C@H]3O)[C@H](NC(=N)N)C[C@@H]2NC(=N)N)[C@H](NC(=N)N)C[C@@H]1O [Compound 8, 5-O-(4-Methylbiphenyl)-guanidinotobramycin]	minimal change in fluorescence	change in fluorescence intensity	resembled the fluorescence difference exhibited by PMBN	either more effective or comparable to the dual combination with avibactam	comparable to the dual combination with avibactam	comparable potentiation of ceftazidime	against two strains	retained synergy with four strains	maintained synergy with aztreonam against four strains	superior BL potentiation	64 to >128	bacteriostatic effect	slightly higher fold-potentiation of aztreonam	initially resulted in a reduction of the bacterial load at 4 hours analogous to the triple combination, but regrowth occurred at 24 hours
